Measurements published in PMC12752627, “Discovery of a Potent and Selective TEAD Degrader with Durable Degradation Activity” (Advanced Science, 2025).
This continues a long series; more values of the same kind are listed elsewhere.

System: 867 cancer cell lines
Assay: PRISM assay (barcoded cell line screening, 5 days);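 further: top test concentration 10 mM in eight-point dilution series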
Type: cell-based
Parameters: scale not given here
Method: The principle of the PRISM assay has been described elsewhere and was conducted as previously outlined by the PRISM team at the Broad Institute.^[ [14], [31] ^] In PRISM (MTS027) experiments, KG‐FP‐003 was tested across 867 different cancer cell lines. Cells were treated with eight concentration gradients, ranging from 4.6 nM to […], in triplicate dilutions over a period of five days. Each plate was treated with 20 µM bortezomib as a positive control and DMSO as a negative control. Three replicate experiments were performed for each compound. The resulting data were analyzed using GraphPad PRISM 9.5.

Question: Which results are given for `CNC(=O)c1cc2c(c(F)c1-c1c(Cl)c(F)cc3c1C[C@@](CN[C@H]1CC[C@H](C(=O)N4CCC(CC5CCN(C(=O)COc6ccc(N7CCC(=O)NC7=O)c(C)c6)CC5)CC4)CC1)(c1ccccc1)O3)[C@@H](O)[C@@H](C)C2` [KG-FP-003]?
Answer: KG-FP-003-AUC (T24_URINARY_TRACT, ACH-000018, PR500): 0.89; KG-FP-003-AUC (T47D_BREAST, ACH-000147, PR500): 0.99; KG-FP-003-AUC (T84_LARGE_INTESTINE, ACH-000381, PR300): 0.98; KG-FP-003-AUC (T98G_CENTRAL_NERVOUS_SYSTEM, ACH-000571, PR500): 0.83; KG-FP-003-AUC (TALL1_HAEMATOPOIETIC_AND_LYMPHOID_TISSUE, ACH-000197, PR300): 0.77; KG-FP-003-AUC (TANOUE_HAEMATOPOIETIC_AND_LYMPHOID_TISSUE, ACH-001669, PR300): 0.77; KG-FP-003-AUC (TASK1_CENTRAL_NERVOUS_SYSTEM, ACH-001670, PR300): 0.99; KG-FP-003-AUC (TC32_BONE, ACH-001205, PR300): 0.86; KG-FP-003-AUC (TC106_BONE, ACH-001283, PR300): 0.98; KG-FP-003-AUC (TC205_BONE, ACH-001431, PR300): 1.00; KG-FP-003-AUC (TCCPAN2_PANCREAS, ACH-000502, PR500): 1.00; KG-FP-003-AUC (TCCSUP_URINARY_TRACT, ACH-000720, PR500): 0.84; KG-FP-003-AUC (TE1_OESOPHAGUS, ACH-000647, PR500): 0.91; KG-FP-003-AUC (TE5_OESOPHAGUS, ACH-000408, PR500): 0.98; KG-FP-003-AUC (TE6_OESOPHAGUS, ACH-000605, PR500): 0.77; KG-FP-003-AUC (TE8_OESOPHAGUS, ACH-000452, PR500): 0.86; KG-FP-003-AUC (TE9_OESOPHAGUS, ACH-000694, PR500): 0.99; KG-FP-003-AUC (TE10_OESOPHAGUS, ACH-000318, PR500): 0.98; KG-FP-003-AUC (TE11_OESOPHAGUS, ACH-000488, PR500): 0.88; KG-FP-003-AUC (TE14_OESOPHAGUS, ACH-000726, PR500): 0.85; KG-FP-003-AUC (TE15_OESOPHAGUS, ACH-000353, PR300): 0.73; KG-FP-003-AUC (TE617T_SOFT_TISSUE, ACH-000051, PR300): 0.28; KG-FP-003-AUC (TEN_ENDOMETRIUM, ACH-000397, PR500): 0.78; KG-FP-003-AUC (TF1_HAEMATOPOIETIC_AND_LYMPHOID_TISSUE, ACH-000387, PR300): 1.00; KG-FP-003-AUC (TFK1_BILIARY_TRACT, ACH-001673, PR300): 0.92; KG-FP-003-AUC (TGBC1TKB_BILIARY_TRACT, ACH-001861, PR300): 0.78; KG-FP-003-AUC (TGBC18TKB_LARGE_INTESTINE, ACH-002023, PR300): 0.91; KG-FP-003-AUC (TGBC52TKB_BILIARY_TRACT, ACH-001862, PR300): 0.84; KG-FP-003-AUC (TGW_AUTONOMIC_GANGLIA, ACH-001674, PR300): 0.99; KG-FP-003-AUC (THP1_HAEMATOPOIETIC_AND_LYMPHOID_TISSUE, ACH-000146, PR300): 0.90; KG-FP-003-AUC (TM31_CENTRAL_NERVOUS_SYSTEM, ACH-000592, PR500): 0.93; KG-FP-003-AUC (TM87_SOFT_TISSUE, ACH-000172, PR300): 0.40; KG-FP-003-AUC (TM87_SOFT_TISSUE, ACH-000172, PR500): 0.48; KG-FP-003-AUC (TOV21G_OVARY, ACH-000885, PR500): 0.54; KG-FP-003-AUC (TOV112D_OVARY, ACH-000048, PR500): 0.98; KG-FP-003-AUC (TT1TKB_LARGE_INTESTINE, ACH-002025, PR300): 1.00; KG-FP-003-AUC (TT2609C02_THYROID, ACH-000716, PR500): 0.91; KG-FP-003-AUC (TTC442_SOFT_TISSUE, ACH-001750, PR300): 0.25; KG-FP-003-AUC (TTC549_SOFT_TISSUE, ACH-001211, PR300): 0.85; KG-FP-003-AUC (TTC642_SOFT_TISSUE, ACH-001212, PR300): 0.99; KG-FP-003-AUC (TTC709_SOFT_TISSUE, ACH-000597, PR300): 0.43; KG-FP-003-AUC (TTC1240_SOFT_TISSUE, ACH-001210, PR300): 0.92; KG-FP-003-AUC (TT_OESOPHAGUS, ACH-000561, PR500): 0.99; KG-FP-003-AUC (TT_THYROID, ACH-001321, PR500): 0.97; KG-FP-003-AUC (TUHR4TKB_KIDNEY, ACH-000495, PR500): 0.72; KG-FP-003-AUC (TYKNU_OVARY, ACH-000430, PR300): 0.88; KG-FP-003-AUC (U2OS_BONE, ACH-000364, PR300): 0.65; KG-FP-003-AUC (U2OS_BONE, ACH-000364, PR500): 0.79; KG-FP-003-AUC (U87MG_CENTRAL_NERVOUS_SYSTEM, ACH-000075, PR300): 0.85; KG-FP-003-AUC (U118MG_CENTRAL_NERVOUS_SYSTEM, ACH-000040, PR500): 0.93; KG-FP-003-AUC (U178_CENTRAL_NERVOUS_SYSTEM, ACH-000208, PR300): 0.72; KG-FP-003-AUC (U251MG_CENTRAL_NERVOUS_SYSTEM, ACH-000232, PR500): 0.73; KG-FP-003-AUC (U266B1_HAEMATOPOIETIC_AND_LYMPHOID_TISSUE, ACH-000626, PR300): 0.83; KG-FP-003-AUC (U343_CENTRAL_NERVOUS_SYSTEM, ACH-000036, PR300): 0.62; KG-FP-003-AUC (U2904_HAEMATOPOIETIC_AND_LYMPHOID_TISSUE, ACH-001677, PR300): 0.88; KG-FP-003-AUC (U2940_HAEMATOPOIETIC_AND_LYMPHOID_TISSUE, ACH-001678, PR300): 0.75; KG-FP-003-AUC (U2973_HAEMATOPOIETIC_AND_LYMPHOID_TISSUE, ACH-001679, PR300): 0.95; KG-FP-003-AUC (UACC62_SKIN, ACH-000425, PR500): 0.90; KG-FP-003-AUC (UACC257_SKIN, ACH-000579, PR500): 0.99; KG-FP-003-AUC (UBLC1_URINARY_TRACT, ACH-000741, PR500): 0.75; KG-FP-003-AUC (UMRC3_KIDNEY, ACH-001687, PR300): 0.88; KG-FP-003-AUC (UMRC7_KIDNEY, ACH-001688, PR300): 0.77; KG-FP-003-AUC (UMUC1_URINARY_TRACT, ACH-000834, PR500): 0.79; KG-FP-003-AUC (UMUC5_URINARY_TRACT, ACH-001411, PR300): 0.89; KG-FP-003-AUC (UMUC6_URINARY_TRACT, ACH-001414, PR300): 0.68; KG-FP-003-AUC (UMUC7_URINARY_TRACT, ACH-001415, PR300): 0.50; KG-FP-003-AUC (UMUC10_URINARY_TRACT, ACH-001412, PR300): 0.78; KG-FP-003-AUC (UMUC11_URINARY_TRACT, ACH-001413, PR300): 0.75; KG-FP-003-AUC (UMUC13_URINARY_TRACT, ACH-001407, PR300): 0.52; KG-FP-003-AUC (UO31_KIDNEY, ACH-000428, PR500): 0.73; KG-FP-003-AUC (UPCISCC072_UPPER_AERODIGESTIVE_TRACT, ACH-001693, PR300): 0.46; KG-FP-003-AUC (UPCISCC111_UPPER_AERODIGESTIVE_TRACT, ACH-001696, PR300): 0.72; KG-FP-003-AUC (UPCISCC116_UPPER_AERODIGESTIVE_TRACT, ACH-001698, PR300): 0.86; KG-FP-003-AUC (UW228_CENTRAL_NERVOUS_SYSTEM, ACH-001232, PR300): 0.74; KG-FP-003-AUC (VAESBJ_SOFT_TISSUE, ACH-001702, PR300): 0.90; KG-FP-003-AUC (VAL_HAEMATOPOIETIC_AND_LYMPHOID_TISSUE, ACH-001703, PR300): 0.77; KG-FP-003-AUC (VMCUB1_URINARY_TRACT, ACH-000545, PR500): 0.70; KG-FP-003-AUC (VMRCRCW_KIDNEY, ACH-000484, PR500): 0.95; KG-FP-003-AUC (VMRCRCZ_KIDNEY, ACH-000171, PR500): 0.91; KG-FP-003-AUC (WAOSEL_HAEMATOPOIETIC_AND_LYMPHOID_TISSUE, ACH-001707, PR300): 0.89; KG-FP-003-AUC (WERIRB1_AUTONOMIC_GANGLIA, ACH-001421, PR300): 0.99; KG-FP-003-AUC (WM88_SKIN, ACH-000899, PR500): 1.00; KG-FP-003-AUC (WM793_SKIN, ACH-000827, PR500): 0.73; KG-FP-003-AUC (WM983B_SKIN, ACH-000765, PR500): 0.93; KG-FP-003-AUC (WM1799_SKIN, ACH-000661, PR500): 0.84; KG-FP-003-AUC (WM2664_SKIN, ACH-001239, PR500): 1.00; KG-FP-003-AUC (WSUDLCL2_HAEMATOPOIETIC_AND_LYMPHOID_TISSUE, ACH-000534, PR300): 0.76; KG-FP-003-AUC (YAPC_PANCREAS, ACH-000332, PR500): 0.90; KG-FP-003-AUC (YD8_UPPER_AERODIGESTIVE_TRACT, ACH-000630, PR500): 0.43; KG-FP-003-AUC (YD10B_UPPER_AERODIGESTIVE_TRACT, ACH-000723, PR500): 0.72; KG-FP-003-AUC (YD15_SALIVARY_GLAND, ACH-000836, PR500): 0.55; KG-FP-003-AUC (YD38_UPPER_AERODIGESTIVE_TRACT, ACH-000762, PR500): 0.86; KG-FP-003-AUC (YH13_CENTRAL_NERVOUS_SYSTEM, ACH-000469, PR500): 0.73; KG-FP-003-AUC (YKG1_CENTRAL_NERVOUS_SYSTEM, ACH-000570, PR500): 0.47; KG-FP-003-AUC (YSCCC_BILIARY_TRACT, ACH-001864, PR300): 1.00; KG-FP-003-AUC (ZR751_BREAST, ACH-000097, PR500): 0.75
